{"source": "patent US7381537B2", "about": "(Probiodrug AG, priority 2003, dated 2008)", "key": {"[1]": {"assay": "general procedure: Fmoc solid-phase peptide synthesis; Rink amide MBHA; TBTU/base (DIPEA or NMM); HATU/DIPEA for difficult couplings", "conditions": "whole synthesis, scale of the general procedure 0.5 mmol, 25 μmol for longer peptides"}, "[2]": {"assay": "general procedure: Fmoc solid-phase peptide synthesis; Rink amide MBHA; HMBA-AM; TBTU/base (DIPEA or NMM); HATU/DIPEA for difficult couplings", "conditions": "whole synthesis, scale of the general procedure 0.5 mmol, 25 μmol for longer peptides"}}, "note": "Ends that are not written are not given here. * marks the point of attachment. NHNH2 = NN*", "data": [{"substance": "H-Gln-Lys(Gln)-Arg-Leu-Ala-NH2", "values": [{"measurement": "crude yield", "setting": "[1]", "result": 95, "unit": "% yield"}]}, {"substance": "E(NHNH2)SPTA-NH2", "values": [{"measurement": "crude yield", "setting": "[2]", "result": 76, "unit": "% yield"}]}]}
